Consider 5 molecules from article PMC9268489.

Sequences of proteins named here, by UniProt entry; tags and fusion partners are left off. A change or cut given only in a name is not applied to a line headed by its entry. Residues count along the entry.
UniProt Q8NER1: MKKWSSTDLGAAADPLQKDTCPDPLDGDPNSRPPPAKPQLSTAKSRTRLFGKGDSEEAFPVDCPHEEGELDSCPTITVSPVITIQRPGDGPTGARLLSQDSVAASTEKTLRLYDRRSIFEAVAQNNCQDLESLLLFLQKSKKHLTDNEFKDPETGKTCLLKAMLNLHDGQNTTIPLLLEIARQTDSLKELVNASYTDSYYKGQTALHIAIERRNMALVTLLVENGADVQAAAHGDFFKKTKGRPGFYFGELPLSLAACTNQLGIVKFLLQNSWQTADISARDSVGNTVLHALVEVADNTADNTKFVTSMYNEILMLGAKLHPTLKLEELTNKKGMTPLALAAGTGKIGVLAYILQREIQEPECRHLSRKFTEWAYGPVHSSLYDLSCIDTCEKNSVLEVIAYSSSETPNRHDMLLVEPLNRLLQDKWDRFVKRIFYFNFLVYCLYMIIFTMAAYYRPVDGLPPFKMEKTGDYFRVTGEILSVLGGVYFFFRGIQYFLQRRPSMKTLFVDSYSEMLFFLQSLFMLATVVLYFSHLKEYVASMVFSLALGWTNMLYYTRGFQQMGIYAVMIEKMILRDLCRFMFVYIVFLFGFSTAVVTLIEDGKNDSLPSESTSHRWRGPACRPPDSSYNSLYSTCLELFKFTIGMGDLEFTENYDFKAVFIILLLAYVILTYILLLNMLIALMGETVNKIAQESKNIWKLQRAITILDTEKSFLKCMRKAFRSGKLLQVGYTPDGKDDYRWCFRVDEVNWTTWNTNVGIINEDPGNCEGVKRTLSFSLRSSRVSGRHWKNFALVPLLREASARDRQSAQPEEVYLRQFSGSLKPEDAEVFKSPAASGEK
UniProt Q8R0I0, residues 18-805: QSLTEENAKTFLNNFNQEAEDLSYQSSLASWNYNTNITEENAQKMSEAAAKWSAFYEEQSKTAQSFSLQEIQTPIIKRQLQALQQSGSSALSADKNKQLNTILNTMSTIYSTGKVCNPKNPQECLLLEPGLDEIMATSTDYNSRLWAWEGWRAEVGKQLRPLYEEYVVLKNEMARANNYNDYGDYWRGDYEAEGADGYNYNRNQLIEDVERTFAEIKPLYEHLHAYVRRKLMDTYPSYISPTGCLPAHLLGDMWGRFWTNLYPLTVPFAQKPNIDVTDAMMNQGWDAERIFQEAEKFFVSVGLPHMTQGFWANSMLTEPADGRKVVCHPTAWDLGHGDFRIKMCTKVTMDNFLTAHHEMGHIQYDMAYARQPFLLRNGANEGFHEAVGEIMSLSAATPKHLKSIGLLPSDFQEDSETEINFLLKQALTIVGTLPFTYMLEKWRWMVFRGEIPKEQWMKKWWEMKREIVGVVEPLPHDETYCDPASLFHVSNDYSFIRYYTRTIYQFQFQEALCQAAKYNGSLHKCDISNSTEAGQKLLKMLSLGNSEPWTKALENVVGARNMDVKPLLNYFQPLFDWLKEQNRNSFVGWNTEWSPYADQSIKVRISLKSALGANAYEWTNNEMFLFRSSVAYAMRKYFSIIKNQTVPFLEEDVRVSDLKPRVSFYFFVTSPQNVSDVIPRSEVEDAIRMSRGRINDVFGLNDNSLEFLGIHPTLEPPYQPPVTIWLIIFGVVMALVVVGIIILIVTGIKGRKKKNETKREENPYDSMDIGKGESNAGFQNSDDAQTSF
UniProt Q704Y3: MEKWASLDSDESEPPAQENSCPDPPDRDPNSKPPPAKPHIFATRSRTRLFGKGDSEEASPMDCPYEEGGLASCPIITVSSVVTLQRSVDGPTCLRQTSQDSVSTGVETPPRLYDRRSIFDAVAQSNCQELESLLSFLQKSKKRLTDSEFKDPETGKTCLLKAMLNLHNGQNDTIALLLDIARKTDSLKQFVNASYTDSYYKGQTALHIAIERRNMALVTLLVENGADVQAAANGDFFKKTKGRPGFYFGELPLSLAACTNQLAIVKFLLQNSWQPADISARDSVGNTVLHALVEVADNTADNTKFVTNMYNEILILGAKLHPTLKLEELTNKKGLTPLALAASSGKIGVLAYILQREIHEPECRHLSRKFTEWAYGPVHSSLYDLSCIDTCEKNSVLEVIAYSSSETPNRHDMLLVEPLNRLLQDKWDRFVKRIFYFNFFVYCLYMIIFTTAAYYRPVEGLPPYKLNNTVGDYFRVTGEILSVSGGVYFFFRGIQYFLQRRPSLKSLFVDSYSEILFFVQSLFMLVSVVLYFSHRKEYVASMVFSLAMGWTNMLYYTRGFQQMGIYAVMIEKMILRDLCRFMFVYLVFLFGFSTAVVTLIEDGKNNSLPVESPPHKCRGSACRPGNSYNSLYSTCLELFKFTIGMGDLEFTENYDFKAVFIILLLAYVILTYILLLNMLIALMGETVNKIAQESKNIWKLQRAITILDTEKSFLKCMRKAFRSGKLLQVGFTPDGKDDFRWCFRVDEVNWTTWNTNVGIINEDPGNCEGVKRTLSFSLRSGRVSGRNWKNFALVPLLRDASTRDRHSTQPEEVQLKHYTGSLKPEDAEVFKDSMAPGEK

The target in assay [1] is T1, G-protein-coupled estrogen receptor (GPER1), mouse gastric smooth muscle (mouse (endogenous in gastric smooth muscle)) (UniProt Q8BMP4).
T1 sequence: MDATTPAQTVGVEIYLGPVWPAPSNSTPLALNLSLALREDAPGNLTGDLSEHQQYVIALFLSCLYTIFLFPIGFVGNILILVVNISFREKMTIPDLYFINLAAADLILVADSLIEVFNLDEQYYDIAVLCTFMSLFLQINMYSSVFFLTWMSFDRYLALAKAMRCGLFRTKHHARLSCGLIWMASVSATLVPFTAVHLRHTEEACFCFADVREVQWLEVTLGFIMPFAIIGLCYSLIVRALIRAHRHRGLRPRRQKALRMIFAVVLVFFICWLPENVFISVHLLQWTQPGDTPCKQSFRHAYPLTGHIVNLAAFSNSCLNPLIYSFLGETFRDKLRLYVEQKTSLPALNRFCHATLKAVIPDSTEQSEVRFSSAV
The experiment in a line: co-IP; mouse gastric smooth muscle (MGSM) lysate (Triton X-100-based lysis buffer), GPER1 antibody, protein A/G agarose, immunoblot. (In general: A western blot detects proteins with antibodies after separation by electrophoresis.)

Assay [2] has as its target G-protein-coupled estrogen receptor (GPER1) (human (endogenous in HBO cells)) (UniProt Q99527). The experiment in a line: co-IP; HBO cell lysate (Triton X-100-based lysis buffer, protease and phosphatase inhibitors), 100 µg protein precleared with protein A/G agarose, overnight with antibody to ACE2, T1R3, TRPV1 or GPER1, protein A/G agarose, four washes in lysis buffer, immunoblot.

For assay [3], the target named is transient receptor potential cation channel subfamily V member 1 (TRPV1) (human (endogenous in HBO cells)) (UniProt Q8NER1). The assay can be described thus: co-IP; HBO cells, TRPV1 antibody as precipitating antibody, blot for δ-ENaC; IgG instead of TRPV1 antibody as control; data not shown.

These are yes or no findings as the source states them, for the method shown. Binding seen in cells or lysates may run through a third protein. Some results given as binding are weak or reduced against the parent protein; the word gives no strength.

“ACE2, mouse gastric smooth muscle (from UniProt Q8R0I0 18-805)”: the binding result in assay [1] is on record as “binds”.

As to “TRPV1, mouse gastric smooth muscle (from UniProt Q704Y3 1-839)”, the binding entry in assay [1] was “binds”.

Regarding “angiotensin (Ang) II type 1 receptor (AT1R) (from UniProt P30556 1-359)”, the binding entry in assay [2] is “binds”.

Take “transient receptor potential cation channel subfamily V member 1 (TRPV1) (from UniProt Q8NER1-1 1-839)”: the binding result in assay [2] was “binds”.

B1: epithelial Na+ channel δ-subunit (δ-ENaC) (protein, UniProt P51172 1-802)
chain: MRAVLSQKTTPLPRYLWPGHLSGPRRLTWSWCSDHRTPTCRELGSPHPTPCTGPARGWPRRGGGPCGFTSAGHVLCGYPLCLLSGPIQGCGTGLGDSSMAFLSRTSPVAAASFQSRQEARGSILLQSCQLPPQWLSTEAWTGEWKQPHGGALTSRSPGPVAPQRPCHLKGWQHRPTQHNAACKQGQAAAQTPPRPGPPSAPPPPPKEGHQEGLVELPASFRELLTFFCTNATIHGAIRLVCSRGNRLKTTSWGLLSLGALVALCWQLGLLFERHWHRPVLMAVSVHSERKLLPLVTLCDGNPRRPSPVLRHLELLDEFARENIDSLYNVNLSKGRAALSATVPRHEPPFHLDREIRLQRLSHSGSRVRVGFRLCNSTGGDCFYRGYTSGVAAVQDWYHFHYVDILALLPAAWEDSHGSQDGHFVLSCSYDGLDCQARQFRTFHHPTYGSCYTVDGVWTAQRPGITHGVGLVLRVEQQPHLPLLSTLAGIRVMVHGRNHTPFLGHHSFSVRPGTEATISIREDEVHRLGSPYGHCTAGGEGVEVELLHNTSYTRQACLVSCFQQLMVETCSCGYYLHPLPAGAEYCSSARHPAWGHCFYRLYQDLETHRLPCTSRCPRPCRESAFKLSTGTSRWPSAKSAGWTLATLGEQGLPHQSHRQRSSLAKINIVYQELNYRSVEEAPVYSVPQLLSAMGSLCSLWFGASVLSLLELLELLLDASALTLVLGGRRLRRAWFSWPRASPASGASSIKPEASQMPPPAGGTSDDPEPSGPHLPRVMLPGVLAGVSAEESWAGPQPLETLDT
Consider B1, for which the binding entry in assay [3] and in assay [2] was “binds” each time.
